Our source for the binding values is paper doi:10.1101/2024.12.02.626298.

Results are given in words; binding and its absence hold for the method and conditions named. Binding seen in cells or lysates may run through a third protein. Some binding calls cover weakened binding; strength is not graded here. Where a sequence is shown, tags or fusion partners need not be part of it.

The target of the test is T1, CarD-FLAG (M. smegmatis) (UniProt A0R561).
T1 sequence: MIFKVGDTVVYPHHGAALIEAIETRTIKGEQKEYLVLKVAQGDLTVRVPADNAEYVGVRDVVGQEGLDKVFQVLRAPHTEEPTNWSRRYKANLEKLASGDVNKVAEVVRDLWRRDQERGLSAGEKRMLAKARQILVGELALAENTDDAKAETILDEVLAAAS
The test can be described thus: co-IP.

B1: RbpA (protein, UniProt A0QZ11 1-114)
chain: MADRVLRGSRLGAVSYETDRNHDLAPRQVARYRTDNGEEFDVPFADDAEIPGTWLCRNGLEGTLIEGDVPEPKKVKPPRTHWDMLLERRSVEELEELLKERLDLIKAKRRGTGS
Regarding B1, the binding result is listed as “binds”.
